No constants are given. Whether binding was seen depends on the method and setting. Some entries that bind do so weakly or less than the wild type.
Target: T1, bovine βA3 crystallin (bovine) (UniProt P11843)
T1 sequence (looked up): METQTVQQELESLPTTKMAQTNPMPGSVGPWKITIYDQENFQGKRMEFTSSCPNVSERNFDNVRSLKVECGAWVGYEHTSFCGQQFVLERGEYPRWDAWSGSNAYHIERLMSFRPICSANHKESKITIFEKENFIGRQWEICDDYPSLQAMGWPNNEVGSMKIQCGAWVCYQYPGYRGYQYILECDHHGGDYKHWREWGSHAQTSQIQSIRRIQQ
Test: gel filtration on Sephacryl 300 HR in distilled water at neutral pH (heterodimer)

binding: binds
B1: bovine βB2 crystallin (protein)
chain: ASDHQTQAGKPQPLNPKIIIFEQENFQGHSHELNGPCPNLKETGVEKAGSVLVQAGPWVGYEQANCKGEQFVFEKGEYPRWDSWTSSRRTDSLSSLRPIKVDSQEHKITLYENPNFTGKKMEVIDDDVPSFHAHGYQEKVSSVRVQSGTWVGYQYPGYRGLQYLLEKGDYKDSGDFGAPQPQVQSVRRIRDMQWHQRGAFHPSS
modifications: N-terminus acetylated (as extracted from bovine eye)

Source: US8404644
